Laboratory results published in PMC4980451.
These are yes or no findings as the source states them, for the method shown. For part of these data: In cells and extracts the contact can be indirect. Some results given as binding are weak or reduced against the parent protein; the word gives no strength.

Amino acid sequences for entries named in this document (tags omitted).
UniProt P60484: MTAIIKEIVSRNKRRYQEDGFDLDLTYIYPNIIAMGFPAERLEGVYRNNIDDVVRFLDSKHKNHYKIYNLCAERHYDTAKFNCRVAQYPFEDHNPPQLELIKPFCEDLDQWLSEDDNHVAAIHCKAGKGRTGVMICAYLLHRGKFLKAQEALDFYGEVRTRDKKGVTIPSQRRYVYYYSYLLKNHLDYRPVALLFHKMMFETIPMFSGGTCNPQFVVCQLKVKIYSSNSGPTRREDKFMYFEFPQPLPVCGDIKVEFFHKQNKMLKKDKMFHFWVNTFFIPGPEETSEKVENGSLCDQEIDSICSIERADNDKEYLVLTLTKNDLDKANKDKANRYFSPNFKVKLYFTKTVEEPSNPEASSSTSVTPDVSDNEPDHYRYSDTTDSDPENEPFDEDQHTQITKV
UniProt P52732: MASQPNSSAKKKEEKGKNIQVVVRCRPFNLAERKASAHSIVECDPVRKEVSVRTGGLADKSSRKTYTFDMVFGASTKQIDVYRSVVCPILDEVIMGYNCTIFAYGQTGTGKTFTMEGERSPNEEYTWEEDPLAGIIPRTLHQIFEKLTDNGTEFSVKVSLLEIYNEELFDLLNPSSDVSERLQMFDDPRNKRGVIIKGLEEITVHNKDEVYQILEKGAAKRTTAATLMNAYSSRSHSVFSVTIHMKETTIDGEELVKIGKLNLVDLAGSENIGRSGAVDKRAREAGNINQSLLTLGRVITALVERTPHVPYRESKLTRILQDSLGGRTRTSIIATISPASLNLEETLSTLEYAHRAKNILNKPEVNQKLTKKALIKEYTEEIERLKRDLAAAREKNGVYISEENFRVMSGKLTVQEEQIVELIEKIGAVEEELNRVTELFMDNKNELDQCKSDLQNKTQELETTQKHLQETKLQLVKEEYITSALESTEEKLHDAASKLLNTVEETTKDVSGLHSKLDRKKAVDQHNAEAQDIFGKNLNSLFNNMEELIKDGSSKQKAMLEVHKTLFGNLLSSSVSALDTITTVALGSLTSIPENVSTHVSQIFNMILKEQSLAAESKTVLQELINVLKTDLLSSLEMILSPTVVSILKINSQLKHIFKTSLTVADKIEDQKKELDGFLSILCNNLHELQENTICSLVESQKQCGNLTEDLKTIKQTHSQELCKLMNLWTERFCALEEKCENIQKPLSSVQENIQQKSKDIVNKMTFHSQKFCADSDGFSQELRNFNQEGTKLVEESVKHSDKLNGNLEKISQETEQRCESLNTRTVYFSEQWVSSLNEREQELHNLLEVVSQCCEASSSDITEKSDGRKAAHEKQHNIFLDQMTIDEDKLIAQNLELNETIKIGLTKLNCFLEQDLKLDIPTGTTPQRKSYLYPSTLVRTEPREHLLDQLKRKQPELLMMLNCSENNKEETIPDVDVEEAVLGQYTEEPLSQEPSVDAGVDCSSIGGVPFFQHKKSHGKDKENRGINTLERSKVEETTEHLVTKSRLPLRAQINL

Experiments:
[1] = molecular target: PTEN (endogenous, HeLa) (human (endogenous in HeLa)) (UniProt P60484); test: condition: only at times other than 6-10 h after release from double thymidine block; co-IP; endogenous proteins; synchronized samples at times other than 6-10 h after release from double thymidine block
[2] = molecular target: PTEN (endogenous, HeLa) (human (endogenous in HeLa)) (UniProt P60484); test: co-IP; endogenous proteins; cell lysates (HeLa; Pten+/+ MEFs; synchronized samples 6-10 h after release from double thymidine block) immunoprecipitated with an anti-PTEN monoclonal antibody, EG5 detected by Western blotting
His-PTEN = His-PTEN (UniProt P60484); test: co-IP; purified FLAG-EG5 (1 ug) incubated with His-PTEN (1 ug) for 30 min at room temperature; immunoprecipitated with a PTEN monoclonal antibody; FLAG-EG5 detected with anti-FLAG antibody; both purified

Row | binding [1] | binding [2] | binding (His-PTEN) | Substance
1 | no binding | binds |  | EG5 (endogenous, HeLa) (from UniProt P52732 1-1056)
2 |  |  | binds | FLAG-EG5 (Sf9) (from UniProt P52732 1-1056)
